Measured data: PubChem BioAssay AID1224826 (NIAID, 2016)

Purpose: 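Regulators of Tlr4 signalling leading to Tnf-alpha expression in macrophages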 (primary screen)
Cell system: RAW264.7 G9 macrophages from mouse bearing reporters for p65 (GFP) and the Tnf promoter (mCherry)
Knock-down reagent: siRNA pool against mouse genes, 100 nM
Duration: 16 h of LPS stimulation, after 2 days of siRNA transfection
Treatment: bacterial lipopolysaccharide (Salmonella minnesota R595), 10 ng/ml
Detection: 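Imaged Tnf reporter mCherry in nuclei, minus background, normalised per plate to the median and expressed as robust z-scores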
Direction: Tnf reporter robust z-score: higher = stronger Tnf promoter reporter signal after LPS; Tnf reporter intensity: higher = stronger Tnf promoter reporter signal
Rule for the call: 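a well counts as active at a score of -1.3 or below (Tlr4 knock-down control median) or above 3 (raised signal); controls and wells holding fewer than 50 cells are excluded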
Calls: active = Tnf reporter clearly lowered or raised; inactive = no clear change in Tnf reporter
Here is one part, drawn at random, of about 17,000 deposited reagents. About 1,110 of all reagents (6.6%) count as active. 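Active means lowered or raised reporter signal; replicate intensities are raw and not normalised per plate.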 Unmarked entries are inactive. Reagents against one gene are numbered here. No sequences are given here.

| target | reagent no. | Tnf reporter robust z-score | fewer than 50 cells in well | Tnf reporter intensity, replicate 1 | Tnf reporter intensity, replicate 2 |
| --- | --- | --- | --- | --- | --- |
| Or8b56 (GeneID 258812) | 1 | 6.66 (active) | enough cells in well | 492 | 418 |
| Git1 (GeneID 216963) | 1 | -0.75 | enough cells in well | 161 | 118 |
| Or4d10b (GeneID 258676) | 1 | 0.21 | enough cells in well | 178 | 140 |
| Slc35d1 (GeneID 242585) | 1 | – | fewer than 50 cells per well; well left out of calls | 45.9 | 53.8 |
| Cpne2 (GeneID 234577) | 1 | 0.4 | enough cells in well | 222 | 187 |
| Nbl1 (GeneID 17965) | 1 | -1.29 | enough cells in well | 168 | 100 |
| Arfgap2 (GeneID 77038) | 1 | -0.23 | enough cells in well | 113 | 67.3 |
| Per3 (GeneID 18628) | 1 | 0.37 | enough cells in well | 182 | 134 |
| Entpd5 (GeneID 12499) | 1 | -0.57 | enough cells in well | 194 | 175 |
| Tomm7 (GeneID 66169) | 1 | – | fewer than 50 cells per well; well left out of calls | 0 | 51 |
| Tlcd4 (GeneID 99887) | 1 | 0.33 | enough cells in well | 151 | 239 |
| Slc36a2 (GeneID 246049) | 1 | – | fewer than 50 cells per well; well left out of calls | 0 | 0 |
| Ptpn23 (GeneID 104831) | 1 | 0.01 | enough cells in well | 263 | 179 |
| Nsmf (GeneID 56876) | 1 | -1.74 (active) | enough cells in well | 118 | 30 |
| Qtgal (GeneID 210004) | 1 | -1.05 | enough cells in well | 145 | 65.6 |
| Oxct2a (GeneID 64059) | 1 | – | fewer than 50 cells per well; well left out of calls | 0 | 37.5 |
| Trim56 (GeneID 384309) | 1 | -0.3 | enough cells in well | 167 | 124 |
| Wfdc1 (GeneID 67866) | 1 | -0.05 | enough cells in well | 320 | 172 |
| Tbl1x (GeneID 21372) | 1 | -0.41 | enough cells in well | 209 | 111 |
| Marcks (GeneID 17118) | 1 | -0.94 | enough cells in well | 182 | 138 |
| Taar6 (GeneID 215855) | 1 | -0.2 | enough cells in well | 208 | 261 |
| Ei24 (GeneID 13663) | 1 | -0.6 | enough cells in well | 187 | 179 |
| Sap30l (GeneID 50724) | 1 | -0.74 | enough cells in well | 114 | 123 |
| Tmem60 (GeneID 212090) | 1 | 1.44 | enough cells in well | 262 | 359 |
| Sdc1 (GeneID 20969) | 1 | 0.9 | enough cells in well | 171 | 163 |
| Cav2 (GeneID 12390) | 1 | -0.04 | enough cells in well | 225 | 222 |
| Slfn3 (GeneID 20557) | 1 | – | fewer than 50 cells per well; well left out of calls | 31.2 | 51.1 |
| Tk1 (GeneID 21877) | 1 | 0.39 | enough cells in well | 199 | 124 |
| Luc7l2 (GeneID 192196) | 1 | -0.21 | enough cells in well | 174 | 138 |
| Xrcc3 (GeneID 74335) | 1 | -0.15 | enough cells in well | 202 | 238 |
| Spata31d1a (GeneID 72219) | 1 | – | fewer than 50 cells per well; well left out of calls | 119 | 63.9 |
| Pfkfb2 (GeneID 18640) | 1 | 1.16 | enough cells in well | 242 | 252 |
| Gan (GeneID 209239) | 1 | -0.18 | enough cells in well | 253 | 210 |
| Mtmr3 (GeneID 74302) | 1 | -1.71 (active) | enough cells in well | 126 | 75.6 |
| Cbx1 (GeneID 12412) | 1 | 0.21 | enough cells in well | 249 | 236 |
| Tdpoz1 (GeneID 207213) | 1 | 3.1 (active) | enough cells in well | 211 | 216 |
| Tfap4 (GeneID 83383) | 1 | -0.53 | enough cells in well | 140 | 143 |
| Syt15 (GeneID 319508) | 1 | – | fewer than 50 cells per well; well left out of calls | 89.4 | 69 |
| Afg1l (GeneID 215951) | 1 | 0.44 | enough cells in well | 267 | 120 |
| Or7a37 (GeneID 259044) | 1 | 1.06 | enough cells in well | 299 | 140 |
| Cd209d (GeneID 170779) | 1 | -0.19 | enough cells in well | 139 | 186 |
| Pfkl (GeneID 18641) | 1 | 3.73 (active) | enough cells in well | 382 | 420 |
| Or9e1 (GeneID 258530) | 1 | -0.81 | enough cells in well | 133 | 86.9 |
| Stard6 (GeneID 170461) | 1 | 1.14 | enough cells in well | 183 | 96.6 |
| Sec22b (GeneID 20333) | 1 | -0.83 | enough cells in well | 195 | 159 |
| Jakmip1 (GeneID 76071) | 1 | -0.58 | enough cells in well | 123 | 136 |
| Glt28d2 (GeneID 320302) | 1 | – | fewer than 50 cells per well; well left out of calls | 128 | 75.2 |
| Hnrnpr (GeneID 74326) | 1 | 1.38 | enough cells in well | 387 | 223 |
| Pcbp2 (GeneID 18521) | 1 | -0.7 | enough cells in well | 161 | 156 |
| Rgs7bp (GeneID 52882) | 1 | -1.1 | enough cells in well | 135 | 90.9 |
| Kcnc1 (GeneID 16502) | 1 | 0.62 | enough cells in well | 293 | 179 |
| Kcnc1 (GeneID 16502) | 2 | 0.35 | enough cells in well | 190 | 184 |
| Or1e30 (GeneID 258344) | 1 | 0.58 | enough cells in well | 203 | 153 |
| Vmn2r7 (GeneID 319217) | 1 | 0.11 | enough cells in well | 146 | 188 |
| Cdkl2 (GeneID 53886) | 1 | 0.02 | enough cells in well | 197 | 160 |
| Igbp1 (GeneID 18518) | 1 | -0.04 | enough cells in well | 240 | 181 |
| Defb1 (GeneID 13214) | 1 | -1.7 (active) | enough cells in well | 90.8 | 27.1 |
| Togaram2 (GeneID 320159) | 1 | -0.17 | enough cells in well | 166 | 62.3 |
| Cmtm7 (GeneID 102545) | 1 | 1.3 | enough cells in well | 372 | 282 |
| Ptgis (GeneID 19223) | 1 | -0.94 | enough cells in well | 167 | 131 |
| Or2w4 (GeneID 258739) | 1 | 1.08 | enough cells in well | 243 | 167 |
| Rnf41 (GeneID 67588) | 1 | 0.16 | enough cells in well | 140 | 89.3 |
| Edem2 (GeneID 108687) | 1 | -0.05 | enough cells in well | 168 | 140 |
| Zfp428 (GeneID 232969) | 1 | – | fewer than 50 cells per well; well left out of calls | 248 | 73.4 |
| Klhl1 (GeneID 93688) | 1 | -1.04 | enough cells in well | 133 | 66.9 |
| Tcf12 (GeneID 21406) | 1 | -0.97 | enough cells in well | 116 | 116 |
| Tnfrsf19 (GeneID 29820) | 1 | -0.73 | enough cells in well | 183 | 96.4 |
| Or1e29 (GeneID 259011) | 1 | -0.64 | enough cells in well | 192 | 60 |
| Wnt5b (GeneID 22419) | 1 | -0.82 | enough cells in well | 137 | 201 |
| Snapc5 (GeneID 330959) | 1 | 1.85 | enough cells in well | 173 | 47.6 |
| Or6aa1 (GeneID 258612) | 1 | -0.82 | enough cells in well | 129 | 87.9 |
| 6820408C15Rik (GeneID 228778) | 1 | 0.77 | enough cells in well | 249 | 214 |
| Kif23 (GeneID 71819) | 1 | -1.31 (active) | enough cells in well | 149 | 72.4 |
| Gcnt3 (GeneID 72077) | 1 | -0.32 | enough cells in well | 176 | 152 |
| Tmem67 (GeneID 329795) | 1 | -0.24 | enough cells in well | 144 | 152 |

Active calls, among the entries above:
| target | reagent no. | Tnf reporter robust z-score | fewer than 50 cells in well | Tnf reporter intensity, replicate 1 | Tnf reporter intensity, replicate 2 |
| --- | --- | --- | --- | --- | --- |
| Or8b56 (GeneID 258812) | 1 | 6.66 (active) | enough cells in well | 492 | 418 |
| Nsmf (GeneID 56876) | 1 | -1.74 (active) | enough cells in well | 118 | 30 |
| Mtmr3 (GeneID 74302) | 1 | -1.71 (active) | enough cells in well | 126 | 75.6 |
| Tdpoz1 (GeneID 207213) | 1 | 3.1 (active) | enough cells in well | 211 | 216 |
| Pfkl (GeneID 18641) | 1 | 3.73 (active) | enough cells in well | 382 | 420 |
| Defb1 (GeneID 13214) | 1 | -1.7 (active) | enough cells in well | 90.8 | 27.1 |
| Kif23 (GeneID 71819) | 1 | -1.31 (active) | enough cells in well | 149 | 72.4 |
